Results on one substance are retold here after publication PMC11352776.

By UniProt entry, the sequences of proteins in these tests, tags left out. Where a name states a change or a piece, a line headed by the entry shows the natural chain unless it says otherwise. Chains listed by the source or under a name are the forms on record and can include a tag or linker.
mouse Ten-4 tagging HA (Ten-4-HA) (Q3UHK6-4, form named): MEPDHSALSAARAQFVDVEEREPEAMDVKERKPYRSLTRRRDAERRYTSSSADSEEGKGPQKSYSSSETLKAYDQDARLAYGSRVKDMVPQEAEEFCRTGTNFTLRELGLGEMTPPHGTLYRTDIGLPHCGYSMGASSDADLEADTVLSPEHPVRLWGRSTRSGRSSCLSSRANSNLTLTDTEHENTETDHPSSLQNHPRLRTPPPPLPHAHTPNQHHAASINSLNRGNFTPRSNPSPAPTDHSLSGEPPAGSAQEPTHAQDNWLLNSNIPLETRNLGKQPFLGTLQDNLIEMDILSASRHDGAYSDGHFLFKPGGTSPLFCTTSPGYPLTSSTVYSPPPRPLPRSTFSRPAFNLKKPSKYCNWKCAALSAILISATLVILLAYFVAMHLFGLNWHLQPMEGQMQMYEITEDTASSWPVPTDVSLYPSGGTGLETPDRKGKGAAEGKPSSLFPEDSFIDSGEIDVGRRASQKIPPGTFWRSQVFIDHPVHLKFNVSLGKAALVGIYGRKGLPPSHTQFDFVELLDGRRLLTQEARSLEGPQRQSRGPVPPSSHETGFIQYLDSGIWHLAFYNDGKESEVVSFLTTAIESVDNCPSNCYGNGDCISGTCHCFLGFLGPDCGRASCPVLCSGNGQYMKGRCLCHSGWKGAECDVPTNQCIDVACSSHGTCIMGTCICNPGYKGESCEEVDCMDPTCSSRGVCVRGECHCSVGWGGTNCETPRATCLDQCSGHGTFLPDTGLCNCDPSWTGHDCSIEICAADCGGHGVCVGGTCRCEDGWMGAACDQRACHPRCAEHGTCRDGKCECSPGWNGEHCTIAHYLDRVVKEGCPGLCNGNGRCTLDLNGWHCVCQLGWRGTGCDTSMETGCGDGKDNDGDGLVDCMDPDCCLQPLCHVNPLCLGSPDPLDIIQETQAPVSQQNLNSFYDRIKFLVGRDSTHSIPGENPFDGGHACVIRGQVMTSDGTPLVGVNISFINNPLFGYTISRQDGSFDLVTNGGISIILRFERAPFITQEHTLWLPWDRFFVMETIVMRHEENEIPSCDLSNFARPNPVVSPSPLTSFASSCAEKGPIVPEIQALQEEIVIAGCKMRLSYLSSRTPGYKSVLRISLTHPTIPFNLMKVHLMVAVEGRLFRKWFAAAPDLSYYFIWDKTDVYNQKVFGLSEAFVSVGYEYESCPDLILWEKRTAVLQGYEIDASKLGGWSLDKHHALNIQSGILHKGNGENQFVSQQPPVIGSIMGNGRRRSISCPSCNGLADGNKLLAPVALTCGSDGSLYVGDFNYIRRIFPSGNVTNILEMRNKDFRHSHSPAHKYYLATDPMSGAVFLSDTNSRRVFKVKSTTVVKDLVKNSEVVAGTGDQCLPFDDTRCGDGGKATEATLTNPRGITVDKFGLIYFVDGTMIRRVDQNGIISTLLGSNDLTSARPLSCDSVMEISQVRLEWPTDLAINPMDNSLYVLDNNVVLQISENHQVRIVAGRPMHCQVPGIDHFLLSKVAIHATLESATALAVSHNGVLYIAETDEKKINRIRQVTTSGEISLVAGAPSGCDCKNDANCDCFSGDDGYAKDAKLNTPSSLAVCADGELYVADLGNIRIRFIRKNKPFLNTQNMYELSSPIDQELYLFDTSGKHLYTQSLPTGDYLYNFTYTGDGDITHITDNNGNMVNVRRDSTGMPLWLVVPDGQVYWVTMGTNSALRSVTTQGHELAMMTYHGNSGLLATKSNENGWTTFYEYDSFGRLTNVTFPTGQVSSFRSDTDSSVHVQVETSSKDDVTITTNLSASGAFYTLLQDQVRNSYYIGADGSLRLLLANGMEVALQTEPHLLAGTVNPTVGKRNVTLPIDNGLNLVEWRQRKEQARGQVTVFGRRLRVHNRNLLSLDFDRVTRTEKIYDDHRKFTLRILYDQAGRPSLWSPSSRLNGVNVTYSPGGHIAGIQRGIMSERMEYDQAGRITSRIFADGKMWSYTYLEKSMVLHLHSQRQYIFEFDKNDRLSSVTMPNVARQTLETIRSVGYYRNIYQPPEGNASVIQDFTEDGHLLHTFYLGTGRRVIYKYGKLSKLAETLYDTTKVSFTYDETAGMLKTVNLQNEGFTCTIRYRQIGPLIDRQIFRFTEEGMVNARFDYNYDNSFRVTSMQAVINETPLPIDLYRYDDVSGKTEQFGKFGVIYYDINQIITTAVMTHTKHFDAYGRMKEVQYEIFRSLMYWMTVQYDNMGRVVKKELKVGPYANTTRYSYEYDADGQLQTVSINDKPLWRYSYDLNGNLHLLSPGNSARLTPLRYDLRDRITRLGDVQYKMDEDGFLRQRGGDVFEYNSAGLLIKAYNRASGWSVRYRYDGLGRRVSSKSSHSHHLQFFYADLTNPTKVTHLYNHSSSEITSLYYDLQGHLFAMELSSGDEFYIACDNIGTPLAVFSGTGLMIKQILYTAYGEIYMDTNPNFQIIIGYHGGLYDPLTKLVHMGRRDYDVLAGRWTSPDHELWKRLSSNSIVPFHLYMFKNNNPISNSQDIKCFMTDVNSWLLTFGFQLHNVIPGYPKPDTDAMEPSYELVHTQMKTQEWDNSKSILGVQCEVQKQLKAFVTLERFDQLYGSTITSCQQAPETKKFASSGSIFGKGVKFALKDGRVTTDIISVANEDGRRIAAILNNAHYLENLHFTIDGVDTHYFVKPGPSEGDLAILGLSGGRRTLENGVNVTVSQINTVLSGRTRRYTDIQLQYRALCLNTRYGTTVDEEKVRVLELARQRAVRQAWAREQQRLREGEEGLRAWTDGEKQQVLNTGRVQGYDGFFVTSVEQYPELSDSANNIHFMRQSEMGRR

The assay addresses T1, signal peptide sequence-deleted mouse LOTUS having streptavidin-binding protein (SBP)- and FLAG-tag at the N terminus (SBP-FLAG-LOTUS), overexpressed in COS7 cells (mouse) (UniProt Q8R555).
T1 sequence: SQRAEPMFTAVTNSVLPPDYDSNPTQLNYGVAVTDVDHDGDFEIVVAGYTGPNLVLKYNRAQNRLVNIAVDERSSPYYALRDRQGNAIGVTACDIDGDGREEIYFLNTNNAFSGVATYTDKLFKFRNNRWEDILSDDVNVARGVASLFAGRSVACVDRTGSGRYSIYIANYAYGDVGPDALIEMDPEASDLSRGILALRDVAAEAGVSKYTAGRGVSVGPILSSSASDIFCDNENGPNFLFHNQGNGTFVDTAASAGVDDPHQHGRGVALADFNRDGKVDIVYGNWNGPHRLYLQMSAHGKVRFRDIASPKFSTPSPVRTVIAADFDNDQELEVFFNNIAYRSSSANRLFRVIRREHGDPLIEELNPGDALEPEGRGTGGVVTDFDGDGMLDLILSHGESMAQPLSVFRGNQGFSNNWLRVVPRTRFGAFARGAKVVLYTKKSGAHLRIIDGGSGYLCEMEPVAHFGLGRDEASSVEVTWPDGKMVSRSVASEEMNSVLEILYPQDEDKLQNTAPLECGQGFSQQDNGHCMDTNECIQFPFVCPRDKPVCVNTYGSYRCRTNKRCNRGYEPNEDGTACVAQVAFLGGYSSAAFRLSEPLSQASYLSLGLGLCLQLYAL
Description: pull-down; lysates (1% Nonidet P-40, 137 mM NaCl, 20 mM Tris-Cl pH 7.5) of COS7 cells overexpressing SBP-FLAG-LOTUS and/or Ten-4-HA applied to streptavidin resins; western blotting with anti-Ten-4 and anti-LOTUS antibodies. (In general: Immunoblotting shows a protein as a band on a membrane.)

Results are given in words; binding and its absence hold for the method and conditions named. In cells and extracts the contact can be indirect. Some entries that bind do so weakly or less than the wild type. Tags and fused reporters may be left off the sequences shown.

Take “mouse Ten-4 tagging HA (Ten-4-HA) (from UniProt Q3UHK6-4 1-2796)”: the binding result is recorded as “binds”.
